These results are taken from article PMC12040169 (PLOS Biology, 2025).

The list shows a part of the results.

The test system of the assay is T1, CTL2-GFP (C. trachomatis L2/434/Bu, GFP-expressing).
T1 construct: L2/434/Bu, GFP-expressing
Also noted: species or system HeLa; Intracellular C. trachomatis growth in HeLa cells, bulk GFP fluorescence relative to DMSO. Conditions: bulk GFP, single well; 28.5 h, 10 µM; inhibitor.
Regarding `CN1CCN(CCC(=O)N/N=C/c2ccc(O)cc2O)CC1` [CBK262849], the “% of control remaining” value was 112.581%. Consider `C=CCOCc1cc(O)n2nc(SC)c(C(N)=O)c2n1` [CBK008592], for which the “% of control remaining” value was found to be 93.2714%. For the compound `CC(=O)Nc1cccc(C(=O)N2CCCC2c2ccncc2)c1` (stereo not shown) [CBK305080], the “% of control remaining” value is recorded as 120.897%. The same measure for `O=C(Cn1cc(Br)ccc1=O)NC1CCN(Cc2ccccn2)CC1` [CBK305686]: 110.291%; for `CNC(=O)C1(Cc2ccccc2-c2ccccc2C)CCN(C(=O)Cc2ccccc2)CC1` [CBK285901]: 97.8902%; for `COc1cc(C2(O)CCN(Cc3ccccc3)C2)ccc1OCc1ccccc1` (stereo not shown) [CBK045620]: 54.5171%. As for `CC1CCN(Cc2c(O)ccc3c(=O)c(-c4cccc(Cl)c4)c(C(F)(F)F)oc23)CC1` [CBK266258], the “% of control remaining” value is on record as 194.119%.

On to `O=C(c1ccco1)N1CCC[C@@H]1[C@@H](O)c1cccs1` [CBK284291], for which the “% of control remaining” value was found to be 103.6%. For the compound `N#Cc1ccccc1CSc1nnc(-c2ccco2)n1-c1ccccc1` [CBK267270], the “% of control remaining” value came to 111.557%.

With `Cc1ccsc1C(=O)Nc1ncn(CC(=O)N2CCCCCC2)n1` [CBK304192], the “% of control remaining” value is given as 61.2708%. In the case of `COc1ccc(C(=O)N2CC[C@@H]3NC(=O)[C@H]4C[C@H](NC(=O)C5CCC5)CN4C(=O)[C@H]32)cc1` [CBK289268], the “% of control remaining” value was found to be 82.5517%. For the compound `Cc1ccc(-c2cc(C(=O)NCc3cccnc3)c3ccccc3n2)cc1C` [CBK265402], the “% of control remaining” value stood at 100%. For the compound `COc1cc(C(=O)NC(C)C(=O)NN)cc(OC)c1OC` (stereo not shown) [CBK262609], the “% of control remaining” value came to 118.856%. On to `COc1cc(Nc2cc(-n3nc(C)cc3C)ncn2)cc(OC)c1OC` [CBK288594], for which the “% of control remaining” value was 136.256%.

For the compound `CCOC(=O)CSC/C(=N/Nc1ccccc1)c1cccs1` [CBK006956], the “% of control remaining” value worked out at 96.0387%.

Take `Cc1cc(C)n(-c2nc3ccccc3nc2N2CCN(S(=O)(=O)c3ccc4ccccc4c3)CC2)n1` [CBK269134]: the “% of control remaining” value stood at 100.118%. In the case of `CC(C)(CNS(=O)(=O)c1ccc(Cl)cc1)OCc1ccccc1` [CBK262088], the “% of control remaining” value came out at 109.179%. As to `Cc1ccc2nc(O)cc(C(=O)OCC(=O)c3cccc([N+](=O)[O-])c3)c2c1` [CBK265115], the “% of control remaining” value stood at 100%. As to `CC(C)c1ccc(S(=O)(=O)NCC(C)(C)CO)cc1` [CBK043547], the “% of control remaining” value is 125.931%. In the case of `CCCCC(=O)NC(c1ccc(Cl)cc1)c1cc([N+](=O)[O-])c2cccnc2c1O` (stereo not shown) [CBK293938], the “% of control remaining” value amounted to 104.517%.

As for `Cc1ccc(NC(=O)CN(c2ccccc2)S(=O)(=O)c2ccccc2[N+](=O)[O-])cc1C` [CBK262345], the “% of control remaining” value is recorded as 101.176%.

As to `COc1ccc2cc(C(=O)NC3CCCN(C)C3)n(C)c2c1` (stereo not shown) [CBK282541], the “% of control remaining” value is given as 125.112%.

As to `c1coc(COc2cncc(N3CCNCC3)n2)c1` [CBK013393], the “% of control remaining” value was found to be 136.411%.

As for `O=C(Nc1c(F)cccc1F)n1ccc2c(N3CCNCC3)cccc21` [CBK003745C], the “% of control remaining” value was found to be 101.712%. For `O=C(NC1CCS(=O)(=O)C1)/C(=C\c1ccccc1)NC(=O)c1ccc([N+](=O)[O-])cc1` (stereo not shown) [CBK261034] the value was 100%.

Regarding `O=C(Cn1c(=O)n(Cc2cccs2)c2ncccc21)NCC1CC1` [CBK283899], the “% of control remaining” value is 124.812%. For `CC(C)(C)OC(=O)NCC1(CC(=O)O)CCCCC1` [CBK287030], the “% of control remaining” value was 113.79%. Regarding `O=C(c1cccnc1)N1CCN(Cc2cccc(Oc3ccccc3)c2)CC1` [CBK263326G], the “% of control remaining” value is recorded as 108.742%.

Take `CCn1cc(S(=O)(=O)N2CCCC3(CCCCC3)C2)c(C)n1` [CBK282756]: the “% of control remaining” value is 119.679%. As for `O=C(c1ncccc1O)N1CC(O)CC1c1cc(F)ccc1F` (stereo not shown) [CBK306452], the “% of control remaining” value was found to be 111.228%. `O=C(c1cc(F)c(F)cc1F)N1CCC2(CCCNC2)C1` (stereo not shown) [CBK137068T]: the “% of control remaining” value turned out to be 100.134%.

Consider `COc1ccc(-c2ccc(CCC(=O)O)n2NC(N)=S)cc1` [CBK266018], for which the “% of control remaining” value is given as 222.554%. Take `O=C(NCc1sccc1Cl)Nc1cccc(Cl)c1` [CBK057110]: the “% of control remaining” value is 102.677%. Turning to `NS(=O)(=O)c1ccc(N2C(=O)C(O)=C(C(=O)c3ccc(Cl)cc3)C2c2ccc([N+](=O)[O-])cc2)cc1` (stereo not shown) [CBK263758], the “% of control remaining” value is 100%.

For `CCOC(=O)c1ccccc1NC(=O)N[C@@H]1CC[C@@]2(c3ccc(OC)c(OC)c3)CCN(C)[C@H]2C1` [CBK047494T], the “% of control remaining” value was found to be 93.5405%. Consider `O=C1/C(=N\Nc2ccc([N+](=O)[O-])cc2[N+](=O)[O-])c2ccccc2N1CN1CCCCC1` [CBK260926], for which the “% of control remaining” value came to 111.778%. Take `Cc1ccc2oc(-c3cc(NC(=O)Cn4cnc5c(=O)n(C)c(=O)n(C)c54)ccc3O)nc2c1` [CBK267112]: the “% of control remaining” value was 130.369%. For the compound `O=C(Cn1cc(C(=O)NCc2ccccc2)ccc1=O)Nc1cc(F)ccc1N1CCCC1` [CBK285998], the “% of control remaining” value was found to be 120.559%.

Regarding `CC(C)(C)OC(=O)N1CCC(COc2ccc(-c3ccncc3)cn2)CC1` [CBK161777], the “% of control remaining” value came to 111.769%. Take `Cc1cc(C)c(C)c(S(=O)(=O)NCCN2CCCCC2CO)c1C` (stereo not shown) [CBK307333]: the “% of control remaining” value is 121.432%. `CCn1c2ccccc2c2cc(Nc3cc(-c4cccc5ccccc45)ncn3)ccc21` [CBK090834]: the “% of control remaining” value is given as 108.909%.

For the compound `S=c1[nH]nc(Cn2ccc(-c3ccccc3)n2)o1` [CBK022019], the “% of control remaining” value is 74.6736%. For `Cc1[nH]c2ccccc2c1/C=C1/C(=N)N2C(SCc3ccccc3)=NSC2=NC1=O` [CBK265291], the “% of control remaining” value stood at 124.02%.

On to `CN1CCN(C2c3ccccc3Oc3ccccc32)CC1` [CBK066891], for which the “% of control remaining” value was found to be 164.851%. With `O=C(O)CCn1c2ccc(Cl)cc2c2cc(Cl)ccc21` [CBK261415], the “% of control remaining” value came to 100%.

For the compound `O=C(O)c1cccc(-c2cncc(NCc3ccncc3)n2)c1` [CBK037915], the “% of control remaining” value is on record as 95.2123%. Consider `OCc1ccc(-c2nccnc2NCCc2c[nH]c3ccccc23)cc1` [CBK038004], for which the “% of control remaining” value was 179.499%. On to `Cc1oc2ccc(O)cc2c1C(=O)N(C)C(C)Cc1ccccn1` (stereo not shown) [CBK282627], for which the “% of control remaining” value amounted to 108.995%.

Turning to `O=c1oc2ccccc2c2nc(-c3ccncc3)ncc12` [CBK288536], the “% of control remaining” value came to 92.7336%.
